Data as given in PubChem BioAssay AID1224830 (NIAID, 2016).
The whole screen tested about 18,000 reagents; this is a part drawn at random. Of all reagents, about 2,900 (16%) are marked active. 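Calls are made per well; low scores hint the gene aids the LPS response, high scores that it dampens it.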 Unmarked entries are inactive. Repeated entries: four replicate wells of each siRNA pool.

Purpose: 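Host factors that control LPS-induced TNF expression in human macrophages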 (primary screen)
Cells: human THP-1 monocytic leukaemia cells, TNF dual-luciferase reporter clone, PMA-differentiated to macrophage-like cells
Reagents: siRNA pool against human genes, 50 nM
Timing: LPS for 4 h, given about 3 days after siRNA transfection
Challenge: bacterial LPS (TLR4 ligand), 10 ng/ml
Measured: 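Ratio of firefly to renilla light, scaled to the plate median and expressed as a robust z-score per replicate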
Direction: TNF reporter robust z-score: higher = stronger TNF reporter response to LPS
Call rule: 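a well is active when its z-score exceeds 2.8 or falls below -1.5; control wells carry no call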

gene	TNF reporter robust z-score
NOTCH2NLA	-1.39
NOTCH2NLA	-0.34
NOTCH2NLA	-0.91
NOTCH2NLA	-0.53
GREM1	1.05
GREM1	0.57
GREM1	0.13
GREM1	-0.32
GSTA2	0.49
GSTA2	0.31
GSTA2	0.2
GSTA2	0.93
TTC7A	-1.31
TTC7A	1.97
TTC7A	1.47
TTC7A	0.85
GRIN1	1.66
GRIN1	0.33
GRIN1	0.58
GRIN1	0.34
ARPC3	0.07
ARPC3	0.67
ARPC3	-0.45
ARPC3	-0.39
SERTAD1	1.04
SERTAD1	1.25
SERTAD1	-0.25
SERTAD1	1.27
EXOC5	-0.6
EXOC5	-0.48
EXOC5	-0.98
EXOC5	-0.14
CT47A5	2.14
CT47A5	1.73
CT47A5	0.59
CT47A5	1.86
ASIC1	0.27
ASIC1	-0.25
ASIC1	-0.1
ASIC1	-0.31
GLI3	4.86 (active)
GLI3	1.35
GLI3	1.69
GLI3	4.45 (active)
TTF1	-1.79 (active)
TTF1	-0.38
TTF1	-0.67
TTF1	-0.07
ZNF398	-0.8
ZNF398	-0.1
ZNF398	-0.74
ZNF398	-0.22
HSDL1	-0.48
HSDL1	-0.65
HSDL1	-0.78
HSDL1	0.2
NOP10	0.7
NOP10	0.57
NOP10	-0.05
NOP10	2.19
CTDSPL2	-1.46
CTDSPL2	-0.49
CTDSPL2	-1.41
CTDSPL2	-0.25
RNASE9	-0.31
RNASE9	-0.47
RNASE9	0.92
RNASE9	0.89
HLA-A	1.29
HLA-A	2.13
HLA-A	0
HLA-A	0.93
SNAP91	2.8 (active)
SNAP91	0.37
SNAP91	-0.61
SNAP91	-0.38
TMEM9	0.67
TMEM9	1.36
TMEM9	0.87
TMEM9	0.86
RINT1	-0.12
RINT1	0.82
RINT1	0.25
RINT1	1.04
TGM3	2.15
TGM3	3.06 (active)
TGM3	2.48
TGM3	2.78
COG2	0.04
COG2	0.89
COG2	0.65
COG2	-0.41
GBA1	-0.99
GBA1	-1.2
GBA1	-0.34
GBA1	-0.24
ZNF763	0.31
ZNF763	0.59
ZNF763	1.37
ZNF763	1.12
KCNT1	-0.88
KCNT1	-1.18
KCNT1	-0.76
KCNT1	-1.42
C1QC	0.6
C1QC	-0.18
C1QC	-0.83
C1QC	0.41
CERS4	-0.01
CERS4	1.18
CERS4	1.75
CERS4	0.18
